1 substance from paper PMC5825117 can be followed below.

These are yes or no findings as the source states them, for the method shown. In cells and extracts the contact can be indirect. Tags and fused reporters may be left off the sequences shown.

This experiment addresses T1, FLAG-Su(Hw)^+ expressed in S2 cells (Drosophila) (UniProt P08970).
T1 sequence: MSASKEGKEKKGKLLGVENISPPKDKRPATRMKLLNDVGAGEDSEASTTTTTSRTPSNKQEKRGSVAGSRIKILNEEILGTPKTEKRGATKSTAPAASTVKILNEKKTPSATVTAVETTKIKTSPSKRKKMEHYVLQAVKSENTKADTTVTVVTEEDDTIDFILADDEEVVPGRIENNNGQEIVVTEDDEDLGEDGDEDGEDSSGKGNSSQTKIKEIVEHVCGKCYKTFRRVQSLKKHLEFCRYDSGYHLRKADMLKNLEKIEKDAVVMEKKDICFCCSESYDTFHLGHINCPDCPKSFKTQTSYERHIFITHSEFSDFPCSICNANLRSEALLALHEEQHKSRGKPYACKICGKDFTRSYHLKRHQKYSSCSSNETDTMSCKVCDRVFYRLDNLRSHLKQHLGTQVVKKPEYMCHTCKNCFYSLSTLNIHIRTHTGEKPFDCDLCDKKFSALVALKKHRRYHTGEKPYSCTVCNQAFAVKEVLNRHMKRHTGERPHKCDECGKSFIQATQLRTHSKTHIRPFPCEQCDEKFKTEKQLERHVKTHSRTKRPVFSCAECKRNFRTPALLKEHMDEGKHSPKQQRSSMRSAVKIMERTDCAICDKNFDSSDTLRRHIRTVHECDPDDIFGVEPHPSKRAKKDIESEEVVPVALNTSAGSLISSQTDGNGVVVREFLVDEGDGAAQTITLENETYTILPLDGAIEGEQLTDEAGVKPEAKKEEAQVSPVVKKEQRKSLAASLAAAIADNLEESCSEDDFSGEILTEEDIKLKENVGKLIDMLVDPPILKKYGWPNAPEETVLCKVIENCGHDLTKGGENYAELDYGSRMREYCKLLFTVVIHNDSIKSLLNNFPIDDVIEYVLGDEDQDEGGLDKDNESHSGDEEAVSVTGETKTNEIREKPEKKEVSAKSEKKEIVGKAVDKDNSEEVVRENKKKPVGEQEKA
The experiment is described as follows: co-IP; S2 cells transfected with triple-FLAG Su(Hw) variants; lysis buffer with 450 mM NaCl and DNase I, diluted; FLAG Sepharose beads overnight at 4°C; washes with 150 mM NaCl; blots for the endogenous proteins.

On to “Skeletor protein (S2 cells) (Drosophila (endogenous in S2 cells))”, for which the binding entry is “no binding”.
